Reference: PMC4941730
No constants are given. Whether binding was seen depends on the method and setting. Binding seen in cells or lysates may run through a third protein. Some results given as binding are weak or reduced against the parent protein; the word gives no strength. Where a sequence is shown, tags or fusion partners need not be part of it.

Molecular target: T1, GFP-Ccdc85b fusion protein (mouse) (UniProt Q6PDY0)
T1 sequence: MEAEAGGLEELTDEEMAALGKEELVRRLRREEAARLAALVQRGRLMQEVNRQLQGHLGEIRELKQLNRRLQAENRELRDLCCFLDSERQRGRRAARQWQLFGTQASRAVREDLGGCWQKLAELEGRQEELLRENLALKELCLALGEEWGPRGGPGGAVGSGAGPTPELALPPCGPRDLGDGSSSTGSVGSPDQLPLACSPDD
Assay: co-IP; heterologous cells (HEK293T by the title of Figure 7) transfected with FLAG-Eurl and GFP-Ccdc85b or GFP alone; immunoprecipitation and Western blotting

binding: binds
B1: FLAG-tagged Eurl (protein, UniProt Q9D7G4 1-290)
chain: MNEEEQFVSIDLNDDNICSVCKLGTDKDTLSFCHICFELNLEGVPKSNLLHTKSVRGHKDCFEKYHLIANQDCSRSKLSKSTYEGVKTIVSKKINWIVQYAQNKNLDLESECSKTSQHPLLNFRHKPEKKLLPQFDSQVPKYSAKGSAGNAGSISSYAQRILEHRENTDFRLGLLEDADALWTHSHSQAQKTEETSSGPEGTIQTQNPHYSREELNSMTLAEVVQLSAKLQQRIQEVFEELTHQVQEKDSLASELHVRHVAIEQLLKNCSKLPCLQVGRTGTRSHLPMNH
